Results from publication PMC3948819.
Results are given in words; binding and its absence hold for the method and conditions named. In cells and extracts the contact can be indirect. Some binding calls cover weakened binding; strength is not graded here. For some of these results: Sequences can lack the tags named with a protein.

By UniProt entry, the sequences of proteins in these tests, tags left out.
UniProt P35226: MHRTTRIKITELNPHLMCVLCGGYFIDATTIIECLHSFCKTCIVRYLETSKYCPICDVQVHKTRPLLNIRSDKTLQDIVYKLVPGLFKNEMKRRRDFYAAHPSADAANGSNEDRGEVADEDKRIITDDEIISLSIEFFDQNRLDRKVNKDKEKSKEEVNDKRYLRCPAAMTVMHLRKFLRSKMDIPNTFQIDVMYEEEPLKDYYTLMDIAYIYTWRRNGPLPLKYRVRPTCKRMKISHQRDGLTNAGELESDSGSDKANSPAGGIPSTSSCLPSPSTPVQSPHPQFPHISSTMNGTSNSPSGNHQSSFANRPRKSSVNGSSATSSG
UniProt Q99496: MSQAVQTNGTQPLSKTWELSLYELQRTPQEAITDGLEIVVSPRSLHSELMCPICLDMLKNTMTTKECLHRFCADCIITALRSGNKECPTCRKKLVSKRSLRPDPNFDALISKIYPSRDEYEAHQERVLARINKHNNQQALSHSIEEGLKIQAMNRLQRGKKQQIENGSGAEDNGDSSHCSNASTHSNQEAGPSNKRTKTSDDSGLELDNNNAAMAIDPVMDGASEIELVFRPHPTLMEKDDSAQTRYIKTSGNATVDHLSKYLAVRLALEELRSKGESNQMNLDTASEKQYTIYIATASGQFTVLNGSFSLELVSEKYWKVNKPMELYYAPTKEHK

Legend:
[1] = target: T1, Flag-labeled RRM1 (human) (UniProt P23921); experiment: co-IP; H23-Flag-RRM1 cells transiently transfected with HA-RNF2 or GFP-Bmi1, harvested after 48 h; IP with anti-Flag Ab, immunoblot with anti-HA or anti-GFP; for HA-RNF2 also with MG132 treatment (Fig. 3A)
T1 sequence: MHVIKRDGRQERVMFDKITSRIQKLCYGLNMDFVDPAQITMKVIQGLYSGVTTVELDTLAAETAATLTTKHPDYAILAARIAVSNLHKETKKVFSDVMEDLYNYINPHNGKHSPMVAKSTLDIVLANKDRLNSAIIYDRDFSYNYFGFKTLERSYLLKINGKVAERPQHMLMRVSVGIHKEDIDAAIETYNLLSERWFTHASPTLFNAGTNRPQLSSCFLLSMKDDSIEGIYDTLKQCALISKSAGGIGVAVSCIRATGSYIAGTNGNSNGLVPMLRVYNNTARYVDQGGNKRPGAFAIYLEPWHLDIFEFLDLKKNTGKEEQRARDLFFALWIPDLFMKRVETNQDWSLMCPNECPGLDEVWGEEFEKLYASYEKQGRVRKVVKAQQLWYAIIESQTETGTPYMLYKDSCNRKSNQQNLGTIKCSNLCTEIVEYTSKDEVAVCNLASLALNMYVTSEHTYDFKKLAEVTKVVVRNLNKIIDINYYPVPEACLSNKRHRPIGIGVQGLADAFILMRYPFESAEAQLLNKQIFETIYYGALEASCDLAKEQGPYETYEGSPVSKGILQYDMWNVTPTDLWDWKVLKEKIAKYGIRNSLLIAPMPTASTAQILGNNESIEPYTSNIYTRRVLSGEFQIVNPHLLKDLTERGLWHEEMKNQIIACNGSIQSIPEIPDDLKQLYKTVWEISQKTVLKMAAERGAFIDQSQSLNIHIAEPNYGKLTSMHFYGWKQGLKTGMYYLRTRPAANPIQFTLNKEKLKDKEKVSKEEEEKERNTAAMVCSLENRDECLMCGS

[2] = target: T2, Ribonucleotide reductase M1 (RRM1), endogenous (human (endogenous in NCI-H23)) (UniProt P23921); experiment: co-IP; endogenous proteins, H23-WT lysate (1% Triton X-100, 100 mM NaCl, 50 mM Tris-HCl pH 7.4); IP with anti-RRM1 Ab or control IgG on protein G or A beads, immunoblot
T2 sequence: T1 sequence

[3] = target: T2, Ribonucleotide reductase M1 (RRM1), endogenous (human (endogenous in NCI-H23)); experiment: co-IP; endogenous proteins, H23 gemcitabine-resistant (GR) cell lysate; IP with anti-RRM1 Ab, immunoblot; low-stringency conditions

GFP-Bmi1 (from UniProt P35226 1-326)
binding [1]: binds

RING finger protein 2 (RNF2), endogenous (from UniProt Q99496 1-336)
binding [2]: binds

Bmi1 (B cell-specific moloney murine leukemia virus insertion site 1), endogenous (from UniProt P35226 1-326)
binding [3]: binds weakly

hemagglutinin-(HA)-labeled RNF2 (from UniProt Q99496 1-336)
binding [1]: binds
